# Measurements taken from PMC7969032, “Tandem RNA binding sites induce self-association of the stress granule marker protein TIA-1”.
# These are yes or no findings as the source states them, for the method shown.
# Experiments:
# [1] = target: T-cell intracellular antigen protein (TIA-1), full-length, short isoform (human) (UniProt P31483); test: thioflavin T fluorescence; TIA-1 alone at 2.5 μM in HEPES aggregation buffer with 5 μM ThT, orbital shaking 500 r.p.m., 30 °C; both purified
# [2] = target: T-cell intracellular antigen protein (TIA-1), full-length, short isoform (human) (UniProt P31483); test: condition: only with 5:1 excess TC sites (TC5 ssDNA); turbidity at 385 nm; TIA-1 2.5 μM with excess TC5 ssDNA (5:1 TC sites over TIA-1), aggregation buffer, room temperature; both purified
# [3] = target: T-cell intracellular antigen protein (TIA-1), full-length, short isoform (human) (UniProt P31483); test: condition: only 2.5 μM TIA-1 at room temperature, alone or with single-site or A-rich nucleic acid; turbidity at 385 nm; TIA-1 2.5 μM alone or with 0.25 μM single-site or non-cognate nucleic acid (UC1, TC1, A-rich, p53 site 1), aggregation buffer, room temperature, 10 min; both purified
# [4] = target: T-cell intracellular antigen protein (TIA-1), full-length, short isoform (human) (UniProt P31483); test: condition: only in buffer including 500 mM arginine; sedimentation of the condensed phase by centrifugation (Csat); control: TIA-1 10 μM diluted into size exclusion buffer with 0.5 M arginine-HCl, room temperature; both purified
# [5] = target: T-cell intracellular antigen protein (TIA-1), full-length, short isoform (human) (UniProt P31483); test: SAXS; static SAXS, TIA-1 at 0.37-2.9 mg/ml in 20 mM sodium phosphate, 60 mM KCl, 0.5 M arginine-HCl, 1 mM MgCl2, 2 mM DTT, 0.5 mM EDTA, pH 7.0; both purified
binder,measurement,setting,value
"T-cell intracellular antigen protein (TIA-1), full-length, short isoform (protein, UniProt P31483-2 1-375) MEDEMPKTLYVGNLSRDVTEALILQLFSQIGPCKNCKMIMDTAGNDPYCFVEFHEHRHAAAALAAMNGRKIMGKEVKVNWATTPSSQKKDTSNHFHVFVGDLSPEITTEDIKAAFAPFGRISDARVVKDMATGKSKGYGFVSFFNKWDAENAIQQMGGQWLGGRQIRTNWATRKPPAPKSTYESNTKQLSYDEVVNQSSPSNCTVYCGGVTSGLTEQLMRQTFSPFGQIMEIRVFPDKGYSFVRFNSHESAAHAIVSVNGTTIEGHVVKCYWGKETLDMINPVQQQNQIGYPQPYGQWGQWYGNAQQIGQYMPNGWQVPAYGMYGQAWNQQGFNQTQSSAPWMGPNYGVQPPQGQNGSMLPNQPSGYRVAGYETQ",binding,[1],no binding (condition: 2.5 μM TIA-1 alone)
same,binding,[2],no binding
same,binding,[3],no binding
same,binding,[4],no binding
same,binding,[5],no binding (condition: in buffer with 0.5 M arginine–HCl)
